{
  "sequences": {"note": "Chains of the proteins cited; added tags and fusions are not shown. Residues count along the entry.", "UniProt P38646, residues 47-679": "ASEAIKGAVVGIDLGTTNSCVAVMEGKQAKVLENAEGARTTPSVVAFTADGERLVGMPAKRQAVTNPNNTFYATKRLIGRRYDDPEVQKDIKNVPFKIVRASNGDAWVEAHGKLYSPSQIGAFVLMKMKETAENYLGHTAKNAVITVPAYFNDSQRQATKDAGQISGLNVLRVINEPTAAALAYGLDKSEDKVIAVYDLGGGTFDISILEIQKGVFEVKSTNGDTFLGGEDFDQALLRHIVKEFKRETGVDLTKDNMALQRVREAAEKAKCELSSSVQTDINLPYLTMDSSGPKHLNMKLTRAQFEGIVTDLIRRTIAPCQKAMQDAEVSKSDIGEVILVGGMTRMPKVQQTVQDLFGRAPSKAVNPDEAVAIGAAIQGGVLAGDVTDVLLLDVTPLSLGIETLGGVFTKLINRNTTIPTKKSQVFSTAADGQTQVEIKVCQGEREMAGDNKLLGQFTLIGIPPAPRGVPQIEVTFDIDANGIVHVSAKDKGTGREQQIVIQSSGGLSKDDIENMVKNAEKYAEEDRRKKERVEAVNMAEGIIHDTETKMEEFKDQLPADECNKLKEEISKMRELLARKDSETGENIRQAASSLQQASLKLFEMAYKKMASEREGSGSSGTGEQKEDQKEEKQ", "UniProt O76031, residues 57-633": "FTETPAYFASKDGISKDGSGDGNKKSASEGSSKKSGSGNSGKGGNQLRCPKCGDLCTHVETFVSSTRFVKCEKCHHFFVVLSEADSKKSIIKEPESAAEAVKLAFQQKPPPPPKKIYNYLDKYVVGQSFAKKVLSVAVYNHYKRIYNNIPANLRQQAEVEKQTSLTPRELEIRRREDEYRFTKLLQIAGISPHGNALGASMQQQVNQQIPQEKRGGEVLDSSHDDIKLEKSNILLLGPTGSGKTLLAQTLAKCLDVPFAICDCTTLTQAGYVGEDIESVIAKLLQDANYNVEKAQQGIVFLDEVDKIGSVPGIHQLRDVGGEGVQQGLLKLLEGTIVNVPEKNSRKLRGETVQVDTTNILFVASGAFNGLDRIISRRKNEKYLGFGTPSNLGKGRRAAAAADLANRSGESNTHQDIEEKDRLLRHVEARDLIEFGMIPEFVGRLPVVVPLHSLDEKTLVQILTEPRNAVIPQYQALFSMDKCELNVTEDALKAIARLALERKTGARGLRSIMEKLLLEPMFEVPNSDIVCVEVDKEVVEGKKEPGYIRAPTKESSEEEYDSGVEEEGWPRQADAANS"},
  "source": "paper PMC7801493",
  "key": {"[1]": {"biological_target": "T1, FLAG-tagged CODAS LONP1^R721G expressed in 143B cells (human) (UniProt P36776)", "T1 sequence": "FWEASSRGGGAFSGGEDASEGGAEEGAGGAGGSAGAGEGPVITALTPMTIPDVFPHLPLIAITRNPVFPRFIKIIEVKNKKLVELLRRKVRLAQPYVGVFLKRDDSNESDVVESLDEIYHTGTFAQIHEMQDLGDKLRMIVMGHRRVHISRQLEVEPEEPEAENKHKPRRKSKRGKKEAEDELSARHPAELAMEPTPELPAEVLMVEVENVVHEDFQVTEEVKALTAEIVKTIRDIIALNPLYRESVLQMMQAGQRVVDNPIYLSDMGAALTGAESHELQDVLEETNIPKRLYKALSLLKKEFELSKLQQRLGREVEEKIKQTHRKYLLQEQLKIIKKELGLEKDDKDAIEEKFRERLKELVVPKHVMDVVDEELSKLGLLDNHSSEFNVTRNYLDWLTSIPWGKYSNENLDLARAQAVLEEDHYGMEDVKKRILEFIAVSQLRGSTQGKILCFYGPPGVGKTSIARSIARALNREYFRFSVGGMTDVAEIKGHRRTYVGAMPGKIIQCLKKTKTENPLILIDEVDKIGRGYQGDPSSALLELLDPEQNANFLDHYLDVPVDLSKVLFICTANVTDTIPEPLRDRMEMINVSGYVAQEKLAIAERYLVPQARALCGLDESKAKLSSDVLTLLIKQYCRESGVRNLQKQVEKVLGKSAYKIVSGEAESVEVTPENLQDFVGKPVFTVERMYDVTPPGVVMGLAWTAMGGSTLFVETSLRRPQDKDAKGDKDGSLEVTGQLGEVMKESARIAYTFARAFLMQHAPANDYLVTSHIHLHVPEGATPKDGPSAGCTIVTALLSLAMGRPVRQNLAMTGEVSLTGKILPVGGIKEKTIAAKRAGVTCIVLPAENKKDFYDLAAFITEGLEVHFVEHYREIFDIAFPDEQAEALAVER", "experiment": "co-IP; FLAG-tagged LONP1 (WT or R721G) as bait on ANTI-FLAG M2 Affinity Gel, 30 min at 4 °C; cleared 143B lysates in IP buffer (20 mM Tris-HCl pH 7.4, 150 mM NaCl, 1 mM EDTA, 5% glycerol, 1% Igepal CA-630); Western blot"}, "[2]": {"biological_target": "T2, FLAG-tagged LONP1^WT expressed in 143B cells (human) (UniProt P36776)", "T2 sequence": "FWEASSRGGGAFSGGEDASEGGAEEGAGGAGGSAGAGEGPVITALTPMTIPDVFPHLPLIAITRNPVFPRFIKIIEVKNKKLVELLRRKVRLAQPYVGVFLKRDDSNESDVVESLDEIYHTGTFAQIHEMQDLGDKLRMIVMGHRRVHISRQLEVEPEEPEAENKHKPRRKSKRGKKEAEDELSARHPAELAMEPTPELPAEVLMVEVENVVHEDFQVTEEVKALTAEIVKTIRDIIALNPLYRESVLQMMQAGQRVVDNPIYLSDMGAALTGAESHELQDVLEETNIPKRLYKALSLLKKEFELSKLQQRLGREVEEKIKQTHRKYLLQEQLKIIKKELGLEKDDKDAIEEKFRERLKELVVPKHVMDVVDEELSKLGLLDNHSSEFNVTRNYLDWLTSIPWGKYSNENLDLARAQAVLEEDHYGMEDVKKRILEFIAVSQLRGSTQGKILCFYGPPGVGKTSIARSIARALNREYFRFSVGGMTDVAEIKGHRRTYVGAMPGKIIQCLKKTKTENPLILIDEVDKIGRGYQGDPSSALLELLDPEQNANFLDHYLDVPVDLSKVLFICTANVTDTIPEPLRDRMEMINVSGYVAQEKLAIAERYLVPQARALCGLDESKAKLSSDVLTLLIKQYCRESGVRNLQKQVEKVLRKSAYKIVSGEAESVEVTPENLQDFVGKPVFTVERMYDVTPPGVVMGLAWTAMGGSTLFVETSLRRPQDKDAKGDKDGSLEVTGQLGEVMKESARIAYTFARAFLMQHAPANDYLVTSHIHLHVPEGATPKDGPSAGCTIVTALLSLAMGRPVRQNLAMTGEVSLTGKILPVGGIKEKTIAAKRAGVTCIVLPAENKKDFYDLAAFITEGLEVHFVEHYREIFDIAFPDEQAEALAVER", "experiment": "co-IP; FLAG-tagged LONP1 (WT or R721G) as bait on ANTI-FLAG M2 Affinity Gel, 30 min at 4 °C; cleared 143B lysates in IP buffer (20 mM Tris-HCl pH 7.4, 150 mM NaCl, 1 mM EDTA, 5% glycerol, 1% Igepal CA-630); Western blot"}, "[3]": {"biological_target": "T3, recombinant protease-deficient LONP1^S855A (human) (UniProt P36776)", "T3 sequence": "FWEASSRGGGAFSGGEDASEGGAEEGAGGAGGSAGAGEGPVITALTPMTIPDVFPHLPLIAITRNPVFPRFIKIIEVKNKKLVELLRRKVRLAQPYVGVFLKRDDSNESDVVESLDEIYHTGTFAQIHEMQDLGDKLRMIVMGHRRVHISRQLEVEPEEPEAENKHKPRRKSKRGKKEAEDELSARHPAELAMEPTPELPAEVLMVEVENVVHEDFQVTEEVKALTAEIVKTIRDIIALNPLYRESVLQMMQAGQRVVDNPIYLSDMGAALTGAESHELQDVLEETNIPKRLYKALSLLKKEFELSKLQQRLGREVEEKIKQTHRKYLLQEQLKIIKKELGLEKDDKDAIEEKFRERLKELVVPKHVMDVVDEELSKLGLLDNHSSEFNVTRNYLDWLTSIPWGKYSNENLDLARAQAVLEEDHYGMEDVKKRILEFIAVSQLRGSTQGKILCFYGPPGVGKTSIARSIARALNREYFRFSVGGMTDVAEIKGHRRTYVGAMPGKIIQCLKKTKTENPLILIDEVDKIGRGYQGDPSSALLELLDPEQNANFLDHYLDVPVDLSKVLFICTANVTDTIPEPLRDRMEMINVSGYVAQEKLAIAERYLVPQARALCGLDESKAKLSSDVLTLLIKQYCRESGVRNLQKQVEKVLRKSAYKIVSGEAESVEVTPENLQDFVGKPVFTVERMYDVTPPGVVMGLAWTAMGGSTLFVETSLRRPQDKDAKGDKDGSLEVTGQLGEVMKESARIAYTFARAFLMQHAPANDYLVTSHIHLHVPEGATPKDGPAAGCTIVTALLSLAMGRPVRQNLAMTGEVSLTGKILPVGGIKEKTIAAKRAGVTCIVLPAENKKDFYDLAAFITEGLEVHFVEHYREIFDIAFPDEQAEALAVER", "experiment": "co-IP; CLPX translated in vitro (PURExpress, 8 h, 37 °C) in the presence of recombinant LONP1 S855A; supernatant after 186,000g incubated with anti-LONP1 antibody for 2 h at 4 °C, then Protein A/G-agarose; Western blot; only the target purified"}, "[4]": {"biological_target": "mtHSP70-FLAG (FLAG-tagged mitochondrial HSP70), constitutively expressed (human) (UniProt P38646)", "experiment": "co-IP; mtHSP70-FLAG as bait on ANTI-FLAG M2 Affinity Gel, 30 min at 4 °C; cleared cell lysates in IP buffer (20 mM Tris-HCl pH 7.4, 150 mM NaCl, 1 mM EDTA, 5% glycerol, 1% Igepal CA-630); Western blot; cells with non-target, DNAJA3 or GRPEL1 knock-down, in glucose or galactose with or without 5 uM oligomycin (143B), or control and LONP1 patient fibroblasts"}, "[5]": {"biological_target": "mtHSP70-FLAG expressed in control or LONP1 patient fibroblasts (human) (UniProt P38646)", "experiment": "co-IP; mtHSP70-FLAG as bait on ANTI-FLAG M2 Affinity Gel, 30 min at 4 °C; cleared cell lysates in IP buffer (20 mM Tris-HCl pH 7.4, 150 mM NaCl, 1 mM EDTA, 5% glycerol, 1% Igepal CA-630); Western blot; cells with non-target, DNAJA3 or GRPEL1 knock-down, in glucose or galactose with or without 5 uM oligomycin (143B), or control and LONP1 patient fibroblasts"}},
  "note": "No constants are given. Whether binding was seen depends on the method and setting. Binding seen in cells or lysates may run through a third protein. Some results given as binding are weak or reduced against the parent protein; the word gives no strength. For some assays here: Sequences can lack the tags named with a protein.",
  "data": [
    {"molecule": "mtHSP70, endogenous in 143B cells (from UniProt P38646 47-679)", "values": [
      {"measurement": "binding", "setting": "[1]", "result": "binds"},
      {"measurement": "binding", "setting": "[2]", "result": "binds"}
    ]},
    {"molecule": "CLPX (amino acid residues 57-633), in vitro translated (from UniProt O76031 57-633) (domain or fragment)", "values": [
      {"measurement": "binding", "setting": "[3]", "result": "binds"}
    ]},
    {"molecule": "LONP1, endogenous in 143B cells (protein, UniProt P36776-1 68-959) FWEASSRGGGAFSGGEDASEGGAEEGAGGAGGSAGAGEGPVITALTPMTIPDVFPHLPLIAITRNPVFPRFIKIIEVKNKKLVELLRRKVRLAQPYVGVFLKRDDSNESDVVESLDEIYHTGTFAQIHEMQDLGDKLRMIVMGHRRVHISRQLEVEPEEPEAENKHKPRRKSKRGKKEAEDELSARHPAELAMEPTPELPAEVLMVEVENVVHEDFQVTEEVKALTAEIVKTIRDIIALNPLYRESVLQMMQAGQRVVDNPIYLSDMGAALTGAESHELQDVLEETNIPKRLYKALSLLKKEFELSKLQQRLGREVEEKIKQTHRKYLLQEQLKIIKKELGLEKDDKDAIEEKFRERLKELVVPKHVMDVVDEELSKLGLLDNHSSEFNVTRNYLDWLTSIPWGKYSNENLDLARAQAVLEEDHYGMEDVKKRILEFIAVSQLRGSTQGKILCFYGPPGVGKTSIARSIARALNREYFRFSVGGMTDVAEIKGHRRTYVGAMPGKIIQCLKKTKTENPLILIDEVDKIGRGYQGDPSSALLELLDPEQNANFLDHYLDVPVDLSKVLFICTANVTDTIPEPLRDRMEMINVSGYVAQEKLAIAERYLVPQARALCGLDESKAKLSSDVLTLLIKQYCRESGVRNLQKQVEKVLRKSAYKIVSGEAESVEVTPENLQDFVGKPVFTVERMYDVTPPGVVMGLAWTAMGGSTLFVETSLRRPQDKDAKGDKDGSLEVTGQLGEVMKESARIAYTFARAFLMQHAPANDYLVTSHIHLHVPEGATPKDGPSAGCTIVTALLSLAMGRPVRQNLAMTGEVSLTGKILPVGGIKEKTIAAKRAGVTCIVLPAENKKDFYDLAAFITEGLEVHFVEHYREIFDIAFPDEQAEALAVER", "values": [
      {"measurement": "binding", "setting": "[4]", "result": "binds"}
    ]},
    {"molecule": "LONP1, endogenous in control fibroblasts (protein, UniProt P36776-1 68-959) FWEASSRGGGAFSGGEDASEGGAEEGAGGAGGSAGAGEGPVITALTPMTIPDVFPHLPLIAITRNPVFPRFIKIIEVKNKKLVELLRRKVRLAQPYVGVFLKRDDSNESDVVESLDEIYHTGTFAQIHEMQDLGDKLRMIVMGHRRVHISRQLEVEPEEPEAENKHKPRRKSKRGKKEAEDELSARHPAELAMEPTPELPAEVLMVEVENVVHEDFQVTEEVKALTAEIVKTIRDIIALNPLYRESVLQMMQAGQRVVDNPIYLSDMGAALTGAESHELQDVLEETNIPKRLYKALSLLKKEFELSKLQQRLGREVEEKIKQTHRKYLLQEQLKIIKKELGLEKDDKDAIEEKFRERLKELVVPKHVMDVVDEELSKLGLLDNHSSEFNVTRNYLDWLTSIPWGKYSNENLDLARAQAVLEEDHYGMEDVKKRILEFIAVSQLRGSTQGKILCFYGPPGVGKTSIARSIARALNREYFRFSVGGMTDVAEIKGHRRTYVGAMPGKIIQCLKKTKTENPLILIDEVDKIGRGYQGDPSSALLELLDPEQNANFLDHYLDVPVDLSKVLFICTANVTDTIPEPLRDRMEMINVSGYVAQEKLAIAERYLVPQARALCGLDESKAKLSSDVLTLLIKQYCRESGVRNLQKQVEKVLRKSAYKIVSGEAESVEVTPENLQDFVGKPVFTVERMYDVTPPGVVMGLAWTAMGGSTLFVETSLRRPQDKDAKGDKDGSLEVTGQLGEVMKESARIAYTFARAFLMQHAPANDYLVTSHIHLHVPEGATPKDGPSAGCTIVTALLSLAMGRPVRQNLAMTGEVSLTGKILPVGGIKEKTIAAKRAGVTCIVLPAENKKDFYDLAAFITEGLEVHFVEHYREIFDIAFPDEQAEALAVER", "values": [
      {"measurement": "binding", "setting": "[5]", "result": "binds"}
    ]}
  ]
}
